Results are given in words; binding and its absence hold for the method and conditions named. Binding seen in cells or lysates may run through a third protein. Some binding calls cover weakened binding; strength is not graded here. For part of these data: Tags and fused reporters may be left off the sequences shown.

Sequences of proteins named here, by UniProt entry; tags and fusion partners are left off.
UniProt Q9GZV5: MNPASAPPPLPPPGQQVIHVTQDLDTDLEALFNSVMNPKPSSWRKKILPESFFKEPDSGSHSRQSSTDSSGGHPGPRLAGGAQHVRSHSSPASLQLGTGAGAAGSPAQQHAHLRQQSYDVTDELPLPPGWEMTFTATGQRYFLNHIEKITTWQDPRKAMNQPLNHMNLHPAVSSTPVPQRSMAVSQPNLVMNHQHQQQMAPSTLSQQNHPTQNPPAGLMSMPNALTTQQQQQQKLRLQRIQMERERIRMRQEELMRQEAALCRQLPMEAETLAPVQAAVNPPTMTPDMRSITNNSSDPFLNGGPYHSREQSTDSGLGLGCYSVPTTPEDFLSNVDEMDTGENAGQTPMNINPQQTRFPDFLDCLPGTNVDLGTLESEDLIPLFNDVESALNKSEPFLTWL
UniProt Q8NI35: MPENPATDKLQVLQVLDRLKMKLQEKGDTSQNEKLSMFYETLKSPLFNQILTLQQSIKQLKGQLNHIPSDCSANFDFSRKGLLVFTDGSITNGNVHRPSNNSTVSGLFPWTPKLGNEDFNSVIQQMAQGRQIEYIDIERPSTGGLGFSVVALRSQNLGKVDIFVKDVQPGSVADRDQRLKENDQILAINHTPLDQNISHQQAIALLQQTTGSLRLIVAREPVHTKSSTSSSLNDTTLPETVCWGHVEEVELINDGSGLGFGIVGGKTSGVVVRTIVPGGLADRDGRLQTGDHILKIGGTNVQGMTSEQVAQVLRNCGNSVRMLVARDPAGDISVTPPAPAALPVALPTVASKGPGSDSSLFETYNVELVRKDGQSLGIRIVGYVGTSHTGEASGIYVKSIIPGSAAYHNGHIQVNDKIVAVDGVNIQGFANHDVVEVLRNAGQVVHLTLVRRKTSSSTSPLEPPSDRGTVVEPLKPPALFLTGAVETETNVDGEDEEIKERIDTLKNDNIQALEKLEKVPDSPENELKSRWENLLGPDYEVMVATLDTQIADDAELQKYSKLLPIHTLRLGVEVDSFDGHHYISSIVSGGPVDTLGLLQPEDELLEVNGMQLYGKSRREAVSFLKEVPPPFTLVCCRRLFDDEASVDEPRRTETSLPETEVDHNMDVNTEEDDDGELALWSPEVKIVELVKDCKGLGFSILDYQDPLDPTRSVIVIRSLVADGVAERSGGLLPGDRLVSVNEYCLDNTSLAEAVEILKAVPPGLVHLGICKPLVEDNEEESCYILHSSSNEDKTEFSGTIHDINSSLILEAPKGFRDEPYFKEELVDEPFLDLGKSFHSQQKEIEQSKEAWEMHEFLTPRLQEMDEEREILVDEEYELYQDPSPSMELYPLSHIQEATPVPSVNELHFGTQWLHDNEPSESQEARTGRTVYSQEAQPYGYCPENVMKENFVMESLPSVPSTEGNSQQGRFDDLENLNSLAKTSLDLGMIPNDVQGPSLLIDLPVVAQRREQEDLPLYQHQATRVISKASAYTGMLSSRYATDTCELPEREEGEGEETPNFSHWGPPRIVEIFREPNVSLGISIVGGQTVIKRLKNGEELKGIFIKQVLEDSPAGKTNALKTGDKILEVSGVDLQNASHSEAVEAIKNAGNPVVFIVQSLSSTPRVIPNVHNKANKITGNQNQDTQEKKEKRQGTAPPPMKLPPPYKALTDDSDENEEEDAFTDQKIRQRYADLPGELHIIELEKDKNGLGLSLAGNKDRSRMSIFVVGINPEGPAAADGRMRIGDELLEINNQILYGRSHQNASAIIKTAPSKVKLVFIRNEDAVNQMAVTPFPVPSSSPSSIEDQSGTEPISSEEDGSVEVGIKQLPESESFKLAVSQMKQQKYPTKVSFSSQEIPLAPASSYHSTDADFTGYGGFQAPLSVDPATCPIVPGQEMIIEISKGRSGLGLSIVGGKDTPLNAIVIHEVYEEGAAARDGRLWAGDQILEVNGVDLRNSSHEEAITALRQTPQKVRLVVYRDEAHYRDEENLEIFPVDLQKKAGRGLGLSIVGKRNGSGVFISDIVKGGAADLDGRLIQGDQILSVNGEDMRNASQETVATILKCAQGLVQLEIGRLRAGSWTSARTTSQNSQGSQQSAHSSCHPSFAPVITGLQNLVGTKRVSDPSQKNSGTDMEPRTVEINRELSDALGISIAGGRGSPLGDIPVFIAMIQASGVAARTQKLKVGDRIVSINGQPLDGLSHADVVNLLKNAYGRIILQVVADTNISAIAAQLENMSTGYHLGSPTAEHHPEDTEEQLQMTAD
UniProt P35240: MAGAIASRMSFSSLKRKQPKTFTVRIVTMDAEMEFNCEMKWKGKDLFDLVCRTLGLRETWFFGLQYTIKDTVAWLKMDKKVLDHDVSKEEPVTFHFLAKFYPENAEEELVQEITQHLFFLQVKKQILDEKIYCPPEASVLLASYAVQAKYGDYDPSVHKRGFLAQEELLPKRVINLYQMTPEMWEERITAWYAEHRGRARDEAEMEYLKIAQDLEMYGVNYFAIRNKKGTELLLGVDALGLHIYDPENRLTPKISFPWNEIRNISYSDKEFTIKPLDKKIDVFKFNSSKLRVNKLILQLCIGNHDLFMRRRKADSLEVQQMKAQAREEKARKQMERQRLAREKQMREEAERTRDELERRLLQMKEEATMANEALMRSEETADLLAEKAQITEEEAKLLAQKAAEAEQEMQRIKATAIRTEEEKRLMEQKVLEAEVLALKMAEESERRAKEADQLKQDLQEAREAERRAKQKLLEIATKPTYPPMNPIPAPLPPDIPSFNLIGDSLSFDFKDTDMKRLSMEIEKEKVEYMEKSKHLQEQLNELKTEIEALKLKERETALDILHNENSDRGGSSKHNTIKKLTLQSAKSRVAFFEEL

For one assay, the target named is T1, GST-LATS1-142-704 (UniProt O95835).
T1 sequence: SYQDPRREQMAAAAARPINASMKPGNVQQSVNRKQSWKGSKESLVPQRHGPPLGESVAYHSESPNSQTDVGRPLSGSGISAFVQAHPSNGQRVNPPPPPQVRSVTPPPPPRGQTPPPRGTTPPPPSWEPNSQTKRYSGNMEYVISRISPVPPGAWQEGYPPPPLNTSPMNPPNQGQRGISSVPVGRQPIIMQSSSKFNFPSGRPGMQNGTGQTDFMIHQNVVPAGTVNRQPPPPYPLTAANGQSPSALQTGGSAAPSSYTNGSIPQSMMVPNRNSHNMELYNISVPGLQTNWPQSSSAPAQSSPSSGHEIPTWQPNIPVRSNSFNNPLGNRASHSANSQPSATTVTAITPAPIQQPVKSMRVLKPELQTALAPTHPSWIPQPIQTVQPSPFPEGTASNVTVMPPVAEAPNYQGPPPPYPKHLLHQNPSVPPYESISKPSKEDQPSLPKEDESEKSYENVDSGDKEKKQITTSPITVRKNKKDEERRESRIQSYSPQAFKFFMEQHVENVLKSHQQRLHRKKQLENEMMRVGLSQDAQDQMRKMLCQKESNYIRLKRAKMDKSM
Briefly: pull-down; GST fusion protein on GST-Sepharose beads (20 uL beads or 10 ug protein) with 1 mL HEK293 total cell lysate, 2 h at 4 C, pulldown buffer 50 mM HEPES pH 7.5, 150 mM NaCl, 10% glycerol, 0.3% CHAPS; western blot; also lysates after siRNA knockdown of LATS1/2 or AMOT (Fig. 3f); only the target purified. Background: Immunoblotting shows a protein as a band on a membrane.

Assay [1] concerns the target T2, MST1 (human (endogenous in HEK293)) (UniProt Q13043).
T2 sequence: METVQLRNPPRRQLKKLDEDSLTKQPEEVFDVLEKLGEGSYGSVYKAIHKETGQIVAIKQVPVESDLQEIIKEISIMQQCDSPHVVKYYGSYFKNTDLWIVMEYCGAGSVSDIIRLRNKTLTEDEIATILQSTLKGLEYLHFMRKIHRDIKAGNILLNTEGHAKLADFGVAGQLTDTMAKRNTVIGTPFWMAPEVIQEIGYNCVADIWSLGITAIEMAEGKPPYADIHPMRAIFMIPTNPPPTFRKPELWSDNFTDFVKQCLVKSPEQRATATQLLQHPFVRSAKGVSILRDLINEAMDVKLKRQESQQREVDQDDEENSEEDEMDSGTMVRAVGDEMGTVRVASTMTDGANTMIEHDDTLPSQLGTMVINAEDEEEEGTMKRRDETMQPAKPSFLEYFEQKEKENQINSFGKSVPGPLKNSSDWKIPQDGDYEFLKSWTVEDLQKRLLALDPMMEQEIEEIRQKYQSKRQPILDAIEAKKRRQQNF
The experiment in a line: co-IP; endogenous MST1 co-immunoprecipitation in cells with or without CD4-FAT1-TM/ICD (Supplementary Fig. 5b).

Turning to TAZ (from UniProt Q9GZV5 1-400), the binding result with GST-LATS1-142-704 was “binds”. Take PATJ (from UniProt Q8NI35 1-1801): in the assay with GST-LATS1-142-704, the binding result is recorded as “binds”. NF2 (from UniProt P35240 1-595): the binding entry (with GST-LATS1-142-704; in assay [1]) was “binds” each time.

B1: SAV1 (protein, UniProt Q9H4B6 1-383)
chain: MLSRKKTKNEVSKPAEVQGKYVKKETSPLLRNLMPSFIRHGPTIPRRTDICLPDSSPNAFSTSGDVVSRNQSFLRTPIQRTPHEIMRRESNRLSAPSYLARSLADVPREYGSSQSFVTEVSFAVENGDSGSRYYYSDNFFDGQRKRPLGDRAHEDYRYYEYNHDLFQRMPQNQGRHASGIGRVAATSLGNLTNHGSEDLPLPPGWSVDWTMRGRKYYIDHNTNTTHWSHPLEREGLPPGWERVESSEFGTYYVDHTNKKAQYRHPCAPSVPRYDQPPPVTYQPQQTERNQSLLVPANPYHTAEIPDWLQVYARAPVKYDHILKWELFQLADLDTYQGMLKLLFMKELEQIVKMYEAYRQALLTELENRKQRQQWYAQQHGKNF
For B1, the binding result with GST-LATS1-142-704 is reported as “binds”.

B2: MOB1A (protein, UniProt Q9H8S9 1-216)
chain: MSFLFSSRSSKTFKPKKNIPEGSHQYELLKHAEATLGSGNLRQAVMLPEGEDLNEWIAVNTVDFFNQINMLYGTITEFCTEASCPVMSAGPRYEYHWADGTNIKKPIKCSAPKYIDYLMTWVQDQLDDETLFPSKIGVPFPKNFMSVAKTILKRLFRVYAHIYHQHFDSVMQLQEEAHLNTSFKHFIFFVQEFNLIDRRELAPLQELIEKLGSKDR
On to B2, for which, in assay [1], the binding entry is recorded as “binds”.
